Results from article PMC6932907.

Assays:
[1] = biological target: T1, Ninjurin2 (human (endogenous in A172 cells, primary human glioma cells and human glioma tissue)) (UniProt Q9NZG7); experiment: co-IP; 1000 μg total cellular lysates of A172 and primary human glioma cells (P1/P2), pre-cleared with beads; endogenous Ninj2 captured by an anti-Ninj2 antibody overnight, then beads 6-8h; Ninj2-immunoprecipitated proteins tested by Western blotting
T1 sequence: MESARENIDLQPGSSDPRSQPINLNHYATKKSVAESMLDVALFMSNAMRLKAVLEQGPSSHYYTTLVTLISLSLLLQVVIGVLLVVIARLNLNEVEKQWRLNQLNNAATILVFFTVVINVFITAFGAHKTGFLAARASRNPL

[2] = biological target: T1, Ninjurin2 (human (endogenous in A172 cells, primary human glioma cells and human glioma tissue)); experiment: co-IP; fresh human glioma tissue lysates from three patients (T1/2/3), same Co-IP assay (anti-Ninj2 capture, Western blotting)

With fibroblast growth factor receptor the binding [1] was “binds” and the binding [2] was “binds”.

Results are given in words; binding and its absence hold for the method and conditions named. In cells and extracts the contact can be indirect. Binding calls can cover weak binding; strength is not graded here.
